According to ChEMBL document CHEMBL3400046, “Discovery and evaluation of a novel monocyclic series of CXCR2 antagonists” (Bioorg Med Chem Lett, 2015):

Experiment: physchem
Settings: octanol/water
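Note: distribution coefficient determined with the shake-flask method.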

C[C@H](CO)Nc1cc(NS(=O)(=O)N2CCOCC2)nc(SCc2cccc(F)c2F)n1
logD: 2.4
